Results reported in PubChem BioAssay AID248 (DTP/NCI, 2004).
The list shows only some results of the screen, not a fair sample: it gathers tests that were run many times, whatever their T/C, doses with no T/C, and many T/C values between a quarter and a half above the control. Further doses and runs are listed elsewhere. T/C: endpoint of the treated group in % of that of the vehicle group. Some doses have a count of surviving animals in place of a T/C: the source holds a T/C of zero for them, seemingly a mark for toxic or unscored doses. Some doses without a T/C left all or most animals alive at the check, yet need not have been tolerated: the source hardly ever lists a survival T/C far under the control, and the zero likely stands for such cases as well. Survivors were counted at the toxicity check, usually on the fifth day, unless a day is given; later deaths do not show. Schedules are NCI's codes, taken here to give the interval after Q, in days (D) or hours (H), and the number of doses after X. Some entries were tested several times; their values stand side by side, smallest first. Where survival is the endpoint, this PubChem deposit counts one and a half times the control or more as active, and values a quarter to a half above the control carry no call in these data; other NCI protocols may use other cut-offs.

System: L1210 leukemia ip in BDF1 mice, survival T/C
Assay: NCI In Vivo Anticancer Drug Screen. Data for tumor model L1210 Leukemia (intraperitoneal) in B6D2F1 (BDF1) mice
Conditions: T/C endpoint: mean survival time, higher T/C = longer survival
[1] = dose: 400.0 mg/kg/injection, schedule: Q01DX001 (ip), vehicle: carboxymethylcellulose (CMC)
[2] = dose: 400.0 mg/kg/injection, schedule: Q01DX009 (ip), vehicle: Klucel (hydroxypropylcellulose) (HPC)
[3] = dose: 400.0 mg/kg/injection, schedule: Q01DX009 (ip), vehicle: saline with Tween-80
[4] = dose: 400.0 mg/kg/injection, schedule: Q04DX003 (ip), vehicle: saline
[5] = dose: 200.0 mg/kg/injection, schedule: Q01DX001 (ip), vehicle: saline with Tween-80
[6] = dose: 400.0 mg/kg/injection, schedule: Q01DX001 (ip), vehicle: saline with Tween-80
[7] = dose: 400.0 mg/kg/injection, schedule: Q04DX003 (ip), vehicle: saline with Tween-80
[8] = dose: 200.0 mg/kg/injection, schedule: Q04DX002 (ip), vehicle: saline with Tween-80
[9] = dose: 400.0 mg/kg/injection, schedule: Q04DX002 (ip), vehicle: saline with Tween-80
[10] = dose: 50.0 mg/kg/injection, schedule: Q04DX002 (ip), vehicle: Klucel (hydroxypropylcellulose) (HPC)
[11] = dose: 100.0 mg/kg/injection, schedule: Q04DX002 (ip), vehicle: Klucel (hydroxypropylcellulose) (HPC)
[12] = dose: 400.0 mg/kg/injection, schedule: Q04DX002 (ip), vehicle: Klucel (hydroxypropylcellulose) (HPC)

CSc1ncc(Br)c(Cl)n1
survivor count (dose: 50.0 mg/kg/injection, schedule: Q01DX001 (ip), vehicle: carboxymethylcellulose (CMC)): 2 of 4 | survivor count (dose: 100.0 mg/kg/injection, schedule: Q01DX001 (ip), vehicle: carboxymethylcellulose (CMC)): 1 of 4 | survivor count (dose: 200.0 mg/kg/injection, schedule: Q01DX001 (ip), vehicle: carboxymethylcellulose (CMC)): 0 of 4 | survivor count [1]: 0 of 4

CC(=O)Nc1ccc(I)cc1C(=O)O
survivor count [1]: 4 of 4

COc1ccc(CCBr)cc1
survivor count (dose: 100.0 mg/kg/injection, schedule: Q01DX009 (ip), vehicle: Klucel (hydroxypropylcellulose) (HPC)): 6 of 6 | survivor count (dose: 200.0 mg/kg/injection, schedule: Q01DX009 (ip), vehicle: Klucel (hydroxypropylcellulose) (HPC)): 6 of 6 | survivor count [2]: 5 of 6

Oc1cc(O)c2c(c1)OC(c1ccc(O)c(O)c1)C(OC1(c3cc(O)c(O)c(O)c3)Oc3cc(O)cc(O)c3C(O)C1O)C2 (configuration not stated)
survivor count [3]: 2 of 6

Cc1ccc(NC(=O)OCCCl)cc1
survivor count (dose: 400.0 mg/kg/injection, schedule: Q01DX001 (ip), vehicle: saline): 0 of 4

CC[N+](C)(CC)CCCOC(=O)c1ccccc1Oc1ccc(C)cc1
survivor count [4]: 0 of 6

COc1ccc(Cl)cc1NC(=O)C(Cl)(Cl)Cl
survivor count (dose: 100.0 mg/kg/injection, schedule: Q01DX009 (ip), vehicle: saline with Tween-80): 3 of 3 | survivor count [5]: 6 of 6 | survivor count [6]: 6 of 6 | survivor count [3]: 3 of 3 and 6 of 6

Cc1csc(C)n1
survivor count [3]: 0 of 6

COc1cc(C(C)=O)cc([N+](=O)[O-])c1O
survivor count [7]: 1 of 6

Cc1cc(CN)c(C)cc1CN
survivor count [4]: 0 of 6

CCC(=O)C(CCN1CCC(n2c(=O)[nH]c3ccccc32)CC1)(c1ccccc1)c1ccccc1
survivor count (dose: 1.56 mg/kg/injection, schedule: Q01DX009 (ip), vehicle: saline with Tween-80): 2 of 6 | survivor count (dose: 3.13 mg/kg/injection, schedule: Q01DX009 (ip), vehicle: saline with Tween-80): 3 of 6 | survivor count (dose: 12.5 mg/kg/injection, schedule: Q01DX009 (ip), vehicle: saline with Tween-80): 1 of 6 | survivor count (dose: 25.0 mg/kg/injection, schedule: Q01DX009 (ip), vehicle: saline with Tween-80): 2 of 6 | survivor count (dose: 200.0 mg/kg/injection, schedule: Q01DX009 (ip), vehicle: saline with Tween-80): 6 of 6 | survivor count [3]: 3 of 6

CC(=O)OCN1C(=O)C2C3CCC(O3)C2C1=O (configuration not stated)
survivor count (dose: 200.0 mg/kg/injection, schedule: Q04DX003 (ip), vehicle: saline with Tween-80): 5 of 6 | survivor count [6]: 0 of 6 | survivor count [7]: 0 of 6

CCC[CH2][Sn]1([CH2]CCC)[O]c2ccccc2[O]1
survivor count (dose: 12.5 mg/kg/injection, schedule: Q04DX002 (ip), vehicle: saline with Tween-80): 2 of 3 | survivor count (dose: 25.0 mg/kg/injection, schedule: Q04DX002 (ip), vehicle: saline with Tween-80): 2 of 3 | survivor count (dose: 50.0 mg/kg/injection, schedule: Q04DX002 (ip), vehicle: saline with Tween-80): 0 of 3 | survivor count (dose: 100.0 mg/kg/injection, schedule: Q04DX002 (ip), vehicle: saline with Tween-80): 0 of 3 | survivor count [8]: 0 of 3 | survivor count [9]: 0 of 3

NCCSc1ccccc1
survivor count [8]: 0 of 3 | survivor count [9]: 0 of 3

CN1CCCCC1C[CH2][Sn]([c]1ccccc1)([c]1ccccc1)[c]1ccccc1 (configuration not stated)
survivor count (dose: 12.5 mg/kg/injection, schedule: Q01DX009 (ip), vehicle: Klucel (hydroxypropylcellulose) (HPC)): 1 of 1 | survivor count (dose: 25.0 mg/kg/injection, schedule: Q01DX009 (ip), vehicle: Klucel (hydroxypropylcellulose) (HPC)): 3 of 3 | survivor count (dose: 50.0 mg/kg/injection, schedule: Q01DX009 (ip), vehicle: Klucel (hydroxypropylcellulose) (HPC)): 0 of 3 | survivor count [10]: 3 of 3 | survivor count [11]: 0 of 3 | survivor count (dose: 200.0 mg/kg/injection, schedule: Q04DX002 (ip), vehicle: Klucel (hydroxypropylcellulose) (HPC)): 0 of 3 | survivor count [12]: 0 of 3

N#Cc1c(C#N)c(N)n(N)c1N
survivor count [11]: 1 of 3 | survivor count [12]: 2 of 3

C=CS(=O)(=O)c1ccccc1Cl
survivor count (dose: 400.0 mg/kg/injection, schedule: Q04DX003 (ip), vehicle: Klucel (hydroxypropylcellulose) (HPC)): 0 of 6

CCOP(=O)(OCC)O/N=C(/C#N)c1ccccc1
survivor count (dose: 150.0 mg/kg/injection, schedule: Q01DX001 (ip), vehicle: saline): 1 of 6 | survivor count (dose: 300.0 mg/kg/injection, schedule: Q01DX001 (ip), vehicle: saline): 0 of 6

CCCc1nc2c(c(=O)n(C)c(=O)n2C)n1C
survivor count (dose: 100.0 mg/kg/injection, schedule: Q01DX001 (ip), vehicle: saline): 4 of 4

CN1CCOC1=Nc1cccc2c1CCCC2
survivor count (dose: 200.0 mg/kg/injection, schedule: Q01DX009 (ip), vehicle: other): 6 of 6

Nc1nc2ncc(CNc3ncc(C(=O)NC(CCC(=O)O)C(=O)O)s3)nc2c(=O)[nH]1 (configuration not stated)
survivor count (dose: 200.0 mg/kg/injection, schedule: Q01DX001 (ip), vehicle: other): 1 of 6

CC(=O)/C=N/Nc1ccccc1
survivor count (dose: 200.0 mg/kg/injection, schedule: Q04DX003 (ip), vehicle: carboxymethylcellulose (CMC)): 1 of 6 | survivor count (dose: 400.0 mg/kg/injection, schedule: Q04DX003 (ip), vehicle: carboxymethylcellulose (CMC)): 0 of 6

Clc1ccc(C2=NC3=CC(Cl)C=CC3=CC2C2CO2)cc1 (configuration not stated)
survivor count [2]: 6 of 6

CC1=N/C(=C/c2ccc([N+](=O)[O-])s2)C(=O)O1
survivor count [11]: 3 of 3

OC1C2CCC(CC2)C1O (configuration not stated)
survivor count (dose: 37.0 mg/kg/injection, schedule: Q01DX001 (ip), vehicle: other): 3 of 6 | survivor count (dose: 75.0 mg/kg/injection, schedule: Q01DX001 (ip), vehicle: other): 2 of 6 | survivor count (dose: 150.0 mg/kg/injection, schedule: Q01DX001 (ip), vehicle: other): 0 of 6 | survivor count (dose: 300.0 mg/kg/injection, schedule: Q01DX001 (ip), vehicle: other): 0 of 6

C=C1CC2(C)C(=O)CCCC2OC1=O (configuration not stated)
survivor count [5]: 1 of 3 | survivor count [6]: 0 of 3

O=C(O)CC(NC(=O)OCc1ccccc1)c1ccccc1 (configuration not stated)
survivor count [3]: 0 of 3 and 2 of 6

N#Cc1cn(C2OC(CO)C(O)C2O)c2nc(Cl)nc(N)c12 (configuration not stated)
T/C (dose: 12.5 mg/kg/injection, schedule: Q01DX005 (ip), vehicle: saline): 128 % of control | survivor count (dose: 50.0 mg/kg/injection, schedule: Q01DX005 (ip), vehicle: saline): 1 of 6 | survivor count (dose: 50.0 mg/kg/injection, schedule: Q01DX009 (ip), vehicle: saline): 1 of 6 | survivor count (dose: 100.0 mg/kg/injection, schedule: Q01DX005 (ip), vehicle: saline): 0 of 6 | survivor count (dose: 200.0 mg/kg/injection, schedule: Q01DX005 (ip), vehicle: saline): 0 of 6

Clc1ccc(-c2cc(=[N+]3CCC4(CC3)SSC3(CC[N+](=c5cc(-c6ccc(Cl)cc6)ss5)CC3)S4)ss2)cc1 (configuration not stated)
survivor count (dose: 200.0 mg/kg/injection, schedule: Q01DX009 (ip), vehicle: water): 6 of 6

O=C1OCCS1
survivor count (dose: 200.0 mg/kg/injection, schedule: Q01DX009 (ip), vehicle: saline): 1 of 6 | survivor count (dose: 400.0 mg/kg/injection, schedule: Q01DX009 (ip), vehicle: saline): 0 of 6

O=C1OCC/C1=C/c1cccc(O)c1
survivor count (dose: 12.5 mg/kg/injection, schedule: Q04DX002 (ip), vehicle: Klucel (hydroxypropylcellulose) (HPC)): 0 of 3 | survivor count (dose: 25.0 mg/kg/injection, schedule: Q04DX002 (ip), vehicle: Klucel (hydroxypropylcellulose) (HPC)): 1 of 3 | survivor count [10]: 0 of 3
